Data on 42 sequences can be found in PMC7819943, “Rice protein-binding microarrays: a tool to detect cis-acting elements near promoter regions in rice”.

The other results are listed elsewhere or left out.

The experiment concerns the target T1, OsSMF1 (Oryza sativa, UniProt Q6ZLB0 1-436).
T1 sequence: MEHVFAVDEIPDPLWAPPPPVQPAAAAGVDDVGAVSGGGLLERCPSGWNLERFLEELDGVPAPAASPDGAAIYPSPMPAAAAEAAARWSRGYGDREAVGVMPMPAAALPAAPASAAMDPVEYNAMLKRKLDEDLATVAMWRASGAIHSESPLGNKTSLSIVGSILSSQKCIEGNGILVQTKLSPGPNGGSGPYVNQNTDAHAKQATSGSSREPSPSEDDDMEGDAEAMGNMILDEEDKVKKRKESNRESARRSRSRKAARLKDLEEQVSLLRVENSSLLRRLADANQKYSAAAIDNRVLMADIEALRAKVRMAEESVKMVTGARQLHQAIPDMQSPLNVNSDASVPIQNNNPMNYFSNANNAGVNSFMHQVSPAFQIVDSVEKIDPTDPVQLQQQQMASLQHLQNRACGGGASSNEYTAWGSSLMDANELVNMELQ
The experiment can be described thus: protein-binding microarray (RPBM); PBS, 2% BSA, 51.3 ng/ul salmon testes DNA, 50 uM zinc acetate, 200 nM TF, 25 C, 1 h; high values mean tight binding. The settings on record: protein: recombinant; tags: N-terminal polyhistidine and DsRed monomer fusion (pET32a); chain copies: 2; label: CyDye5-dUTP incorporated in the synthesized complementary strand; 3' TTTTT single-stranded linker to array surface; dsDNA, one strand shown. The essentials: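 Binding signal is reported as fluorescence intensity per feature (arbitrary units) from an Axon 4000B scanner. Incubation used 200 nM of each Ni–NTA-purified, N-terminally polyhistidine- and DsRed-fused transcription factor from E. coli BL21-CodonPlus on a double-stranded custom Agilent array for 1 h at 25 °C, with 50 µM zinc acetate in the buffer, followed by washing.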
As to “ACCATGTTTGGTCCTTAGTACTTACTACCTCCGTATTTTACGGAGTCACCTAGTGCAG”, the binding signal is 25000 fluorescence intensity (a.u.).
On to “TGTTTACGTCCAACGTTTAACCGCTCGTCTTATTTGAAATCGGAGTCACCTAGTGCAG”, for which the binding signal is 21000 fluorescence intensity (a.u.).
Regarding “ATTAATGTATATGTGTTGCTGATTCAACTTTAAATGCCTACGGAGTCACCTAGTGCAG”, the binding signal is 3450 fluorescence intensity (a.u.).
Turning to “GGAGTTGTCCCCTCCAATGCTACATGCCAAATCATCCGGACGGAGTCACCTAGTGCAG”, the binding signal is 3820 fluorescence intensity (a.u.).
Regarding “GATTTGTCGGCCGGTGGCAGCCATGGCTTCTCCTCCTCCTCGGAGTCACCTAGTGCAG”, the binding signal is 3820 fluorescence intensity (a.u.).
Consider “TTAATTGAAATGCCACCTAAGCACCACGTCAGCACACAGACGGAGTCACCTAGTGCAG”, for which the binding signal is 18700 fluorescence intensity (a.u.).
As to “CGTCAAGCAAAGCCCCGCGTGACGCAACACGGATTGGACTCGGAGTCACCTAGTGCAG”, the binding signal was 5010 fluorescence intensity (a.u.).
The same measure for “TCACGGTTCGTTCAGCGCTCCACGCTAGGCTTAATTTGCCCGGAGTCACCTAGTGCAG”: 3330 fluorescence intensity (a.u.); for “TATGTAACTGTTGCTTCTAACTTCTGTTCCCCGTCACTGTCGGAGTCACCTAGTGCAG”: 4120 fluorescence intensity (a.u.); for “AAATTGTCACGTAAGTGTCACGTCAATGCTATATAGGATGCGGAGTCACCTAGTGCAG”: 7650 fluorescence intensity (a.u.).
“TTCCTCTCCTTCTAAATGCCCTCGTCGTCTACTTTTGATCCGGAGTCACCTAGTGCAG”: the binding signal was 4640 fluorescence intensity (a.u.).
In the case of “TCTTCTGTGCCTGCTCTGTCCACGCATCCAGCAGCTTAGTCGGAGTCACCTAGTGCAG”, the binding signal is 3330 fluorescence intensity (a.u.).
“AATCAATTCCCCACCTGTCGTCATTTATCCATCATCACATCGGAGTCACCTAGTGCAG”: the binding signal was 4510 fluorescence intensity (a.u.).
As to “ACTGGATCGCTGTTTCCTCCACGTGGTGCATTGTCCTTGGCGGAGTCACCTAGTGCAG”, the binding signal was 5240 fluorescence intensity (a.u.).
On to “GGGAGGACGAAGGAACGCCAATACCGACATTGCTCAAGCTCGGAGTCACCTAGTGCAG”, for which the binding signal was 65300 fluorescence intensity (a.u.).
As to “ATTTCGCACGCCATATCCATGCTGGCATGCACATGTGGCGCGGAGTCACCTAGTGCAG”, the binding signal is 4600 fluorescence intensity (a.u.).
Take “GTAATGCAAAGATTTTCCAACACGTTGACACCATACCACCCGGAGTCACCTAGTGCAG”: the binding signal is 5560 fluorescence intensity (a.u.).
As for “AGAGCACGTGTAGGCCCTACCTAACGAGGAACATGTGAAGCGGAGTCACCTAGTGCAG”, the binding signal is 4840 fluorescence intensity (a.u.).
The figure for “CCGTTGTTTCAGAATTCCGTGGCGGATTGCAACGTGTCGGCGGAGTCACCTAGTGCAG” is 4280 fluorescence intensity (a.u.); for “CGTGTGTGTAACTGACATGTGGGTCTCATAGTGTTTGTTACGGAGTCACCTAGTGCAG” it is 5080 fluorescence intensity (a.u.); for “GGGCTCATCTTCACCGTTGTCATTCAGTTATTCACATAAGCGGAGTCACCTAGTGCAG” it is 3360 fluorescence intensity (a.u.).
The figure for “CATTTTGTTGCAAATACCCATCCTCTACTAAGTTTTATTACGGAGTCACCTAGTGCAG” is 16700 fluorescence intensity (a.u.); for “TTGGGAGCAACTCACACACTCCCTTCGAGCAAATATTGTTCGGAGTCACCTAGTGCAG” it is 34100 fluorescence intensity (a.u.).
The figure for “CATAGTGGGCTGGTGCTTACGTAAGATGAGACTTAGGTGGCGGAGTCACCTAGTGCAG” is 4070 fluorescence intensity (a.u.); for “CATCTTCGGCGAGATTTCCACCCGCAGCGATGTCGTCCTCCGGAGTCACCTAGTGCAG” it is 3180 fluorescence intensity (a.u.); for “ACTGGTCGGATTTGCCACTGTCACCCACTGGAACGACAGACGGAGTCACCTAGTGCAG” it is 3510 fluorescence intensity (a.u.).
Consider “CTATATTTCCAGGAGTACAAAATGGTGGGCTCGATGTCTTCGGAGTCACCTAGTGCAG”, for which the binding signal is 35100 fluorescence intensity (a.u.).
In the case of “ATACTTGGACTATTCTCTTTCGGAAACTTGACTAGTTACACGGAGTCACCTAGTGCAG”, the binding signal is 43200 fluorescence intensity (a.u.).
Regarding “TTTATTTTGTTATGAGTTGTTTTATTACTCATAGTATTTTCGGAGTCACCTAGTGCAG”, the binding signal was 3670 fluorescence intensity (a.u.).
For “AGAAAGAGGAGAGGGCTCTTCCTAGTCATCGACCAATCTTCGGAGTCACCTAGTGCAG”, the binding signal is 4350 fluorescence intensity (a.u.).
The same measure for “CCGCCAACGCCGACGACGAGGCCCGCGCCCTCCTCCCTCGCGGAGTCACCTAGTGCAG”: 3290 fluorescence intensity (a.u.).
The same measure for “GTTCCCTCTTGCCAACAACAGCTGACTAATAGATGGGTAACGGAGTCACCTAGTGCAG”: 3360 fluorescence intensity (a.u.).
For the sequence “ACCTGTCAGGGACACACGTCCCACTGACCTGAATTCACCGCGGAGTCACCTAGTGCAG”, the binding signal is 3900 fluorescence intensity (a.u.).
Consider “TAGCACCACATTGTCAAATCATAGAGCAATTAGGCTTAAACGGAGTCACCTAGTGCAG”, for which the binding signal was 22700 fluorescence intensity (a.u.).
As for “TATTGGTTTTGTAAGTCTGGGGACGTGTTATATCCGGTTTCGGAGTCACCTAGTGCAG”, the binding signal was 5300 fluorescence intensity (a.u.).
“GCGGTGCAGGGCGGTGGCGGCGGCGGGTGGGGCGGTGGCGCGGAGTCACCTAGTGCAG”: the binding signal was 5280 fluorescence intensity (a.u.).
In the case of “CACTTGAAAGGAGCGGTATGGCGGTGACTTAAGGTTTGTTCGGAGTCACCTAGTGCAG”, the binding signal is 4040 fluorescence intensity (a.u.).
As to “TTTTCGCTGAGGTGGCAGGTTAACTTGTCTGCTTTCGGCCCGGAGTCACCTAGTGCAG”, the binding signal is 39300 fluorescence intensity (a.u.).
With “CATTAGACATATATTTTCTATATTTATATTGATATTATATCGGAGTCACCTAGTGCAG”, the binding signal is 3280 fluorescence intensity (a.u.).
For “TGTGATTTATATCGTGGAAGATGATGGCTTGGCGGTATAGCGGAGTCACCTAGTGCAG”, the binding signal was 25800 fluorescence intensity (a.u.).
Consider “CGTCACACACTGCTTACACCCACGCACACACCGCGGCGCCCGGAGTCACCTAGTGCAG”, for which the binding signal was 3510 fluorescence intensity (a.u.).
“TGACATTCTGTTTTGCTTTTCCTGCTGATATCAACATGTTCGGAGTCACCTAGTGCAG”: the binding signal is 3350 fluorescence intensity (a.u.).
